{"source": "PubChem BioAssay AID504764, Drosophila RNAi Screening Center, 2011", "aim": "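Genome-wide screen for regulators of Notch-driven gene expression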 (primary screen)", "cell system": "Drosophila Kc167 cells", "knock-down reagent": "long dsRNA against Drosophila genes", "timing": "about 5 days (4 days dsRNA, then 24 h after transfection)", "treatment": "transfection of constitutively active membrane-tethered Notch lacking the extracellular domain, read 24 h later", "read-out": "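Firefly luciferase from an E(spl)m3 reporter with active Notch, plus control-promoter and uninduced reporter wells for normalisation; unnormalised counts, duplicate wells a and b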", "direction": "induced reporter light, run 1, well a and induced reporter light, run 1, well b: higher = more light from the Notch target reporter with active Notch; control promoter light, run 1, well a and control promoter light, run 1, well b: higher = more light from the viral control promoter (cell number, transfection, viability); uninduced reporter light, run 1, well a: higher = more light from the Notch target reporter without active Notch", "active means": "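Wells with low control signal or poorly matching duplicates excluded; duplicates averaged; per source plate, z beyond ±2 for induced/control log2 ratio or beyond ±1.8 for induced/uninduced marks a hit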", "meaning of the calls": "active = modifier hit (raised or lowered Notch signal); inactive = not a hit", "note": "In all, the deposit lists about 22,000 reagents; below is a random part of those with a known target gene and a result. Over the whole deposit, 403 (1.9%) were called active. 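Unnormalised raw counts per well; ratio z-scores behind the hit calls and whether each hit raises or lowers signal are not deposited.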 No sequences are given here. Not stated in the record: the amount of reagent."}
{"gene": "CG4455", "induced reporter light, run 1, well a": 1.84e5, "induced reporter light, run 1, well b": 1.89e5, "control promoter light, run 1, well a": 1.90e5, "control promoter light, run 1, well b": 1.80e5, "uninduced reporter light, run 1, well a": 19865, "call": "active"}
{"gene": "CG14851", "induced reporter light, run 1, well a": 2.36e5, "induced reporter light, run 1, well b": 2.45e5, "control promoter light, run 1, well a": 2.14e5, "control promoter light, run 1, well b": 2.07e5, "uninduced reporter light, run 1, well a": 14860, "call": "inactive"}
{"gene": "CG5139", "induced reporter light, run 1, well a": 1.15e5, "induced reporter light, run 1, well b": 1.10e5, "control promoter light, run 1, well a": 92120, "control promoter light, run 1, well b": 65030, "uninduced reporter light, run 1, well a": 10415, "call": "inactive"}
{"gene": "CG13287", "induced reporter light, run 1, well a": 1.62e5, "induced reporter light, run 1, well b": 1.45e5, "control promoter light, run 1, well a": 2.44e5, "control promoter light, run 1, well b": 1.91e5, "uninduced reporter light, run 1, well a": 9742, "call": "inactive"}
{"gene": "Sema1a (Semaphorin 1a)", "induced reporter light, run 1, well a": 1.96e5, "induced reporter light, run 1, well b": 2.16e5, "control promoter light, run 1, well a": 93975, "control promoter light, run 1, well b": 1.22e5, "uninduced reporter light, run 1, well a": 23615, "call": "inactive"}
{"gene": "CG4630", "induced reporter light, run 1, well a": 1.52e5, "induced reporter light, run 1, well b": 1.35e5, "control promoter light, run 1, well a": 1.41e5, "control promoter light, run 1, well b": 1.27e5, "uninduced reporter light, run 1, well a": 15470, "call": "inactive"}
{"gene": "barr (barren)", "induced reporter light, run 1, well a": 39870, "induced reporter light, run 1, well b": 33355, "control promoter light, run 1, well a": 42865, "control promoter light, run 1, well b": 25605, "uninduced reporter light, run 1, well a": 2910, "call": "inactive"}
{"gene": "Mhc (Myosin heavy chain)", "induced reporter light, run 1, well a": 1.30e5, "induced reporter light, run 1, well b": 1.31e5, "control promoter light, run 1, well a": 1.51e5, "control promoter light, run 1, well b": 1.73e5, "uninduced reporter light, run 1, well a": 11432, "call": "inactive"}
{"gene": "CG3156", "induced reporter light, run 1, well a": 1.75e5, "induced reporter light, run 1, well b": 2.34e5, "control promoter light, run 1, well a": 2.23e5, "control promoter light, run 1, well b": 2.62e5, "uninduced reporter light, run 1, well a": 12885, "call": "inactive"}
{"gene": "CG4783", "induced reporter light, run 1, well a": 1.58e5, "induced reporter light, run 1, well b": 1.73e5, "control promoter light, run 1, well a": 2.28e5, "control promoter light, run 1, well b": 2.63e5, "uninduced reporter light, run 1, well a": 11655, "call": "inactive"}
{"gene": "tef (teflon)", "induced reporter light, run 1, well a": 1.15e5, "induced reporter light, run 1, well b": 99585, "control promoter light, run 1, well a": 1.83e5, "control promoter light, run 1, well b": 2.28e5, "uninduced reporter light, run 1, well a": 8315, "call": "inactive"}
{"gene": "CG6839", "induced reporter light, run 1, well a": 97805, "induced reporter light, run 1, well b": 1.23e5, "control promoter light, run 1, well a": 60500, "control promoter light, run 1, well b": 81825, "uninduced reporter light, run 1, well a": 8070, "call": "inactive"}
{"gene": "zfh2 (Zn finger homeodomain 2)", "induced reporter light, run 1, well a": 1.29e5, "induced reporter light, run 1, well b": 1.46e5, "control promoter light, run 1, well a": 2.58e5, "control promoter light, run 1, well b": 2.19e5, "uninduced reporter light, run 1, well a": 12055, "call": "inactive"}
{"gene": "GCC185 (GRIP and coiled-coil domain containing 185 kDa)", "induced reporter light, run 1, well a": 60675, "induced reporter light, run 1, well b": 1.01e5, "control promoter light, run 1, well a": 64480, "control promoter light, run 1, well b": 53650, "uninduced reporter light, run 1, well a": 4950, "call": "inactive"}
{"gene": "aurA (aurora A)", "induced reporter light, run 1, well a": 83950, "induced reporter light, run 1, well b": 1.04e5, "control promoter light, run 1, well a": 1.04e5, "control promoter light, run 1, well b": 63005, "uninduced reporter light, run 1, well a": 5770, "call": "inactive"}
{"gene": "lbm (late bloomer)", "induced reporter light, run 1, well a": 1.78e5, "induced reporter light, run 1, well b": 1.76e5, "control promoter light, run 1, well a": 1.81e5, "control promoter light, run 1, well b": 1.65e5, "uninduced reporter light, run 1, well a": 16165, "call": "inactive"}
{"gene": "CG13698", "induced reporter light, run 1, well a": 1.05e5, "induced reporter light, run 1, well b": 1.42e5, "control promoter light, run 1, well a": 80530, "control promoter light, run 1, well b": 86180, "uninduced reporter light, run 1, well a": 9555, "call": "inactive"}
{"gene": "TBC1D16 (TBC1 domain family member 16)", "induced reporter light, run 1, well a": 1.02e5, "induced reporter light, run 1, well b": 1.19e5, "control promoter light, run 1, well a": 68205, "control promoter light, run 1, well b": 82985, "uninduced reporter light, run 1, well a": 17905, "call": "inactive"}

2 entries already listed, arranged by “control promoter light, run 1, well b”, low to high:
{"gene": "CG13698", "induced reporter light, run 1, well a": 1.05e5, "induced reporter light, run 1, well b": 1.42e5, "control promoter light, run 1, well a": 80530, "control promoter light, run 1, well b": 86180, "uninduced reporter light, run 1, well a": 9555, "call": "inactive"}
{"gene": "lbm (late bloomer)", "induced reporter light, run 1, well a": 1.78e5, "induced reporter light, run 1, well b": 1.76e5, "control promoter light, run 1, well a": 1.81e5, "control promoter light, run 1, well b": 1.65e5, "uninduced reporter light, run 1, well a": 16165, "call": "inactive"}
